# These are yes or no findings as the source states them, for the method shown. Some binding calls cover weakened binding; strength is not graded here. Sequences can lack the tags named with a protein.
# Target: T1, GST-Omi PDZ fusion protein (human, UniProt O43464 359-458)
# T1 construct: also called GST-hOmiPDZ; hOmi PDZ domain; not shown: glutathione S-transferase (GST) encoded by plasmid pGEX6P-3
# T1 sequence: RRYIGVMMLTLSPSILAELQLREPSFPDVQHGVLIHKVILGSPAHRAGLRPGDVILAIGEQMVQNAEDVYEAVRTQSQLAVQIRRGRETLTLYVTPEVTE
# Assay: phage ELISA on GST-Omi PDZ after three rounds of selection
# Procedure: Selection for Omi PDZ peptides—Previously described procedures were used to isolate peptides that bound to a GST-Omi PDZ fusion, using libraries of random decapeptides fused to either the C terminus(18) or octapeptide fused to the N terminus(19) of the M13 gene-8 major coat protein, designated as libC or libN, respectively. After three rounds of selection, individual clones were grown in a 96-well format in 500 μL of 2YT broth supplemented with carbenicillin, kanamycin and KO7, and the culture supernatants were used directly in phage ELISAs(19) to detect peptides that bound specifically to Omi PDZ. Peptide sequences derived from positive clones were aligned and tabulated. A total of 95 positive colonies from libC and 89 from libN were analyzed. (see Table II). […] The sequences were selected after three rounds of sorting with IPTG induction. Hydrophobic residues (A, F, I, L, M, V, W, Y) are italicized and bolded, n is the number of siblings.
binder,measurement,value
"YGGTFILPHL (peptide, not shown: large carriers) [libC phage-displayed peptide SEQ ID NO:37]",binding,binds

# Reference: patent publication US20090192289A1 (Genentech, published 2009)
